Source: the supplement of paper PMC12067093, “Discovery and optimisation of a covalent ligand for TRIM25 and its application to targeted protein ubiquitination” (Chemical Science, 2025)
The list shows a part of the results.

Amino acid sequences for entries named in this document (tags omitted). A change or cut given only in a name is not applied to a line headed by its entry.
UniProt Q07954: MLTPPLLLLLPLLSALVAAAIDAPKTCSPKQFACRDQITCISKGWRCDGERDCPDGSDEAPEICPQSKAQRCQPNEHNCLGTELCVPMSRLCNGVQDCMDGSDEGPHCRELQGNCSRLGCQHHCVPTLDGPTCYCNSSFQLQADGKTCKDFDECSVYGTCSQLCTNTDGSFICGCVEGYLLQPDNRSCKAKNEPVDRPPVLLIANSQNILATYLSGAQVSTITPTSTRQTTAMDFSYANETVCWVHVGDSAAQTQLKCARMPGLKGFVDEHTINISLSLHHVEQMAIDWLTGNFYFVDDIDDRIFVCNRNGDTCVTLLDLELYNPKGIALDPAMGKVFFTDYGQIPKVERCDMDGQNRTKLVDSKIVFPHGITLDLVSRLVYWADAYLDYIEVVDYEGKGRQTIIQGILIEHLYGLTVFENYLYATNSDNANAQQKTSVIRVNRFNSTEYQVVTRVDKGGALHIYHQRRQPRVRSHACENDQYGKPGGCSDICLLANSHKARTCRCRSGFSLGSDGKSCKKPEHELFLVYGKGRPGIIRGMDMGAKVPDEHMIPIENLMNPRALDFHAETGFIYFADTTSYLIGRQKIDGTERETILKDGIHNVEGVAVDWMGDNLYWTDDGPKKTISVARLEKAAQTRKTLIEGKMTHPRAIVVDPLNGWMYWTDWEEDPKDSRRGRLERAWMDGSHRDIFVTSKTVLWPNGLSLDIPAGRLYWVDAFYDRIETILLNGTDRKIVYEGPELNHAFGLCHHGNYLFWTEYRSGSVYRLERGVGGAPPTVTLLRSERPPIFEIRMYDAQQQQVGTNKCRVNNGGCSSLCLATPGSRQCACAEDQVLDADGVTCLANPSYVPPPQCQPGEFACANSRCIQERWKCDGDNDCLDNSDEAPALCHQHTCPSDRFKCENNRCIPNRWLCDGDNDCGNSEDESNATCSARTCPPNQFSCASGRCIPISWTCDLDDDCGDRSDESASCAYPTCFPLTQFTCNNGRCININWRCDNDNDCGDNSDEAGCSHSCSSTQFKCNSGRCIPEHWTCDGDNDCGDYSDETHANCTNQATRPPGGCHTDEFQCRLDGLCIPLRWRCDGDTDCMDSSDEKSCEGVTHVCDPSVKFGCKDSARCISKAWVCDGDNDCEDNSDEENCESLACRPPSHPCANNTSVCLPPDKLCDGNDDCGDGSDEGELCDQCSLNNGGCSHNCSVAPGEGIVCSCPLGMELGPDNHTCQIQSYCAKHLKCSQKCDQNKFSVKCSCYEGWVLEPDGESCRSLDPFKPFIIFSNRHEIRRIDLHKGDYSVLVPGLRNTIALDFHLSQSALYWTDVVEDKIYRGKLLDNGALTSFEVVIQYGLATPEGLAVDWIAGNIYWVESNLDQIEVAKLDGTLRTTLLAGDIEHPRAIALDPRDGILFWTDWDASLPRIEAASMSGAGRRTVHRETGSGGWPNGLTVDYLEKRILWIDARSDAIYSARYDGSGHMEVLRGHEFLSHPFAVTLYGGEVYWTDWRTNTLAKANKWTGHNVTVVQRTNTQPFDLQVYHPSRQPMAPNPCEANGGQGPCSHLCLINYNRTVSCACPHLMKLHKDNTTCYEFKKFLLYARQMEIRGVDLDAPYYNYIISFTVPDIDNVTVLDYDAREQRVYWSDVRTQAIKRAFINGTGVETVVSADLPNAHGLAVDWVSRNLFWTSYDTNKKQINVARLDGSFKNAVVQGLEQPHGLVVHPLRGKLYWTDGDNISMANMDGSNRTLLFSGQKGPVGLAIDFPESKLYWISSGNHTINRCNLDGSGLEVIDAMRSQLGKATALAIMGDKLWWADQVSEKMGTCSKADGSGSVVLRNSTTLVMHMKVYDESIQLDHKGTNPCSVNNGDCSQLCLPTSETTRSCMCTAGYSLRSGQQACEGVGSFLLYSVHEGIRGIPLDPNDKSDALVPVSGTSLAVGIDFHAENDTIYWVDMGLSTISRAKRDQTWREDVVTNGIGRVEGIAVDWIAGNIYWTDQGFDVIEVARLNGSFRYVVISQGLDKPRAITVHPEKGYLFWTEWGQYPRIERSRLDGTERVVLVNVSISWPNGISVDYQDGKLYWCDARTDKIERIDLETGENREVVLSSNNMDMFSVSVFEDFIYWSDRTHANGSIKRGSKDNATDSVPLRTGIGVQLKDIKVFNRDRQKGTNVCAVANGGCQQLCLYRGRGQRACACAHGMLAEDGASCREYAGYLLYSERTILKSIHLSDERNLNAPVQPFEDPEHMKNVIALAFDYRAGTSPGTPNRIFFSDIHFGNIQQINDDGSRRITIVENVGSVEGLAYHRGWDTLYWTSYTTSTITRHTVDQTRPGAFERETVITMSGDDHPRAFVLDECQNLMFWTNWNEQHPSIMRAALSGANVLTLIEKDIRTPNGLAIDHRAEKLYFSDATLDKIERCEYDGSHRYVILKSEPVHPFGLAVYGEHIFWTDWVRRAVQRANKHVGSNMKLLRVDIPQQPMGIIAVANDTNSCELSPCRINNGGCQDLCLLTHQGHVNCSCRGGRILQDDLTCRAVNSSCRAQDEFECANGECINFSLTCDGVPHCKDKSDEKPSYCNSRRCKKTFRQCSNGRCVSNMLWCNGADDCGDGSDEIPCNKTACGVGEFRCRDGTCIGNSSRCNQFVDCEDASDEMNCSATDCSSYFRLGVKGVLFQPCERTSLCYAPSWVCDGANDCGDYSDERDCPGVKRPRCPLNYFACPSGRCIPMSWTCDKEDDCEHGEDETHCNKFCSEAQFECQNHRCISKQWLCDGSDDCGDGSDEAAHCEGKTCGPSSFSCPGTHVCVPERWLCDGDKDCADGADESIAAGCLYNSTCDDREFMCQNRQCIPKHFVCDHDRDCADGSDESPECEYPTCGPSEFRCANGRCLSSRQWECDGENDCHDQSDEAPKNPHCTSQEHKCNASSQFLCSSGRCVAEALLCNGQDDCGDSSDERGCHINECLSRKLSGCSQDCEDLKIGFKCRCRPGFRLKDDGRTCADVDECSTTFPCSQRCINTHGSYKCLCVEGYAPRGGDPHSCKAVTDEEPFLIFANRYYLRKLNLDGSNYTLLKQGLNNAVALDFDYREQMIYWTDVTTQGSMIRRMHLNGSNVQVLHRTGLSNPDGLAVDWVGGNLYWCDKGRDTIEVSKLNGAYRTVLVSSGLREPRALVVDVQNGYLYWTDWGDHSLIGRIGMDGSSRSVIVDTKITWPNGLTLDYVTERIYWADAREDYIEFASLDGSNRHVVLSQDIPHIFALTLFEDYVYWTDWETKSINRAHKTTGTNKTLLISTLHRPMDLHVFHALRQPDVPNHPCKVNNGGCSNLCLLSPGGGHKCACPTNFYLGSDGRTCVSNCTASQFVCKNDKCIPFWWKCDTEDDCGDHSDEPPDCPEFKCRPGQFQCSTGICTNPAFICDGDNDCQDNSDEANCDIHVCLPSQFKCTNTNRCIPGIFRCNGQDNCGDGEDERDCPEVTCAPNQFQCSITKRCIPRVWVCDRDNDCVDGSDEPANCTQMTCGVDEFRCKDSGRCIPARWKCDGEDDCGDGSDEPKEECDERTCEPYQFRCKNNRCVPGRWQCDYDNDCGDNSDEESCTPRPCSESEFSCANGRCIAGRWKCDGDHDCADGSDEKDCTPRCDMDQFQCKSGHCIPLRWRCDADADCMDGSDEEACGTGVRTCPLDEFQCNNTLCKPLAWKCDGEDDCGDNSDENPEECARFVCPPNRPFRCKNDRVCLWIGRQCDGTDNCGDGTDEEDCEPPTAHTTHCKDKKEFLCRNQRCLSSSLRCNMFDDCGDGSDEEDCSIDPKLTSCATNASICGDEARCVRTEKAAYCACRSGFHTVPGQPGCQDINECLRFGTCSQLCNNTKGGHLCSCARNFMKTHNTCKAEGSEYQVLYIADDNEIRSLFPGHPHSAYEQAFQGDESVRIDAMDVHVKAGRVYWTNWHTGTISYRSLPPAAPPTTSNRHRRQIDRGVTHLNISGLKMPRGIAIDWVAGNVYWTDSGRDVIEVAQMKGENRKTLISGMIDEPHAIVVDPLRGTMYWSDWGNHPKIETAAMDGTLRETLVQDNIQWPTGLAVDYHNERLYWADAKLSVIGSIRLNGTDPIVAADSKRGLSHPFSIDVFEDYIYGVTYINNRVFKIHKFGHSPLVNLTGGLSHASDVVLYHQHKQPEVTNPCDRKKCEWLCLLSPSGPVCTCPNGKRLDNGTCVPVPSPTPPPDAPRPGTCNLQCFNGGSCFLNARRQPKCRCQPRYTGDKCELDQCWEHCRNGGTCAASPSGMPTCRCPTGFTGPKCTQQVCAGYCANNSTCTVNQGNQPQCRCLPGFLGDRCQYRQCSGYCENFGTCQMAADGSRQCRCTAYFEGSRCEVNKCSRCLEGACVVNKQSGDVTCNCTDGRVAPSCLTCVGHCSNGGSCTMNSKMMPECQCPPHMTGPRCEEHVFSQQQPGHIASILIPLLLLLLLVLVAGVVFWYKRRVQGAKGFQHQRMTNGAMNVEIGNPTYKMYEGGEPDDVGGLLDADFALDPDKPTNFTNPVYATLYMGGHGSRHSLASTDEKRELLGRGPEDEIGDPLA
UniProt Q8NF37: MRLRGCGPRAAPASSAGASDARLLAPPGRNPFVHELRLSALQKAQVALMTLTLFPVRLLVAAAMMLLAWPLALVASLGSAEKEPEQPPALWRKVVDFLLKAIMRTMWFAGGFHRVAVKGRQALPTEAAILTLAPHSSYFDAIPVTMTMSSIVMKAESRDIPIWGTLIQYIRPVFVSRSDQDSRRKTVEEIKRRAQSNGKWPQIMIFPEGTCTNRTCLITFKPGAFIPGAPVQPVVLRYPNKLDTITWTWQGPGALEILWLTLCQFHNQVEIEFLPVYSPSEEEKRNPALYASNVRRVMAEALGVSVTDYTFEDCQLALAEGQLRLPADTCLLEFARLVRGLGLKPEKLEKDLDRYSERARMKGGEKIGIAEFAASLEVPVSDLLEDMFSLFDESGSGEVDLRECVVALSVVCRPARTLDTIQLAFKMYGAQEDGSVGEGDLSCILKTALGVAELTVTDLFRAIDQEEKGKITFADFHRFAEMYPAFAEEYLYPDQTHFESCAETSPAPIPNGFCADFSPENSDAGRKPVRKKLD
UniProt O60711: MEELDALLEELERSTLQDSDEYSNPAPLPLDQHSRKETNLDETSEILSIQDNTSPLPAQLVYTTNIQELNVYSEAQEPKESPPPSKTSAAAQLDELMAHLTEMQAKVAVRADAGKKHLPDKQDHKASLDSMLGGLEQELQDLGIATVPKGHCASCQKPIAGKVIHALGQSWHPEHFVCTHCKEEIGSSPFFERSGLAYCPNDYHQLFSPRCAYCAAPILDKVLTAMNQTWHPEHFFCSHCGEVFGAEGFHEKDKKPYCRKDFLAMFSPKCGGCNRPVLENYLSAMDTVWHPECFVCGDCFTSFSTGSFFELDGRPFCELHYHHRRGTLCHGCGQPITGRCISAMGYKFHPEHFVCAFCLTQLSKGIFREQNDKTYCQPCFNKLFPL
UniProt P48059, whole entry, looked up: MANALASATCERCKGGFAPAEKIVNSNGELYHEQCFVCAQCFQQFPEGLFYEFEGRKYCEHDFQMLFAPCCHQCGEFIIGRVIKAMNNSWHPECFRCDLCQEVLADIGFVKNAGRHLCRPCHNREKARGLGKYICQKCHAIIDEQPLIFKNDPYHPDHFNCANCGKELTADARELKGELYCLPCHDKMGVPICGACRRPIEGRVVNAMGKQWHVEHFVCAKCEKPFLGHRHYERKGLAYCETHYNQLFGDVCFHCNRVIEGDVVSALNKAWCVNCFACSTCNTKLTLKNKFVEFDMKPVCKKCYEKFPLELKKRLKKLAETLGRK
UniProt O95202: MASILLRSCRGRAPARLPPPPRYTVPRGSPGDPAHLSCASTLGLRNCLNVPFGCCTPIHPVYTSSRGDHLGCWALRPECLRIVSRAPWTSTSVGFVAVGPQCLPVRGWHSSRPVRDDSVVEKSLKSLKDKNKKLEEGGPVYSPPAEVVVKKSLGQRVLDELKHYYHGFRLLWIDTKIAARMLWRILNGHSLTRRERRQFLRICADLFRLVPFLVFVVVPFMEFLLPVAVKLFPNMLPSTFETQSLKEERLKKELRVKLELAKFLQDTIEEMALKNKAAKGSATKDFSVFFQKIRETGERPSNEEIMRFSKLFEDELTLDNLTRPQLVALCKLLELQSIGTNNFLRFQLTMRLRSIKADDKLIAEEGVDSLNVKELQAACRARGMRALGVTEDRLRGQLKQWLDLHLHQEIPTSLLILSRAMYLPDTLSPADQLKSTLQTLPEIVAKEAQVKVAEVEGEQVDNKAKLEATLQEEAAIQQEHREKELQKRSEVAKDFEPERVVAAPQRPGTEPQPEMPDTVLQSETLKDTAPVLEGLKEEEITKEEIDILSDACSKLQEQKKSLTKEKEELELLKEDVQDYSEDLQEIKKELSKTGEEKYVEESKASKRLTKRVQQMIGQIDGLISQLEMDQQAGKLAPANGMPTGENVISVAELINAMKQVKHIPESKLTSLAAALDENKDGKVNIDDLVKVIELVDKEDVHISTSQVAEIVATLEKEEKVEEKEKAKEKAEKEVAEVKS

Compound: CC1Cc2ccccc2N1C(=O)C1CCCN(C1)C(=O)CCl (mixture of isomers) [TRIM25 ligand 11 (diastereomer mixture)]
Experiment: probe-labelled cysteine peptide fold change vs DMSO (competition) (log2 fold change); higher = less target engagement (more negative = stronger competition)
Settings: THP-1, incubation time: 4 h
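Also: competitive chemoproteomic profiling in live THP-1 cells with an iodoacetamide desthiobiotin (IA-DTB) probe, comparing probe-labelled peptide intensities in compound-treated cells against DMSO-treated controls.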

Target	probe-labelled cysteine peptide fold change (10 µM)	probe-labelled cysteine peptide fold change (50 µM)
LIG3_P49916_724_WCTVTK (UniProt P49916)	-0.0602	0.143
LRP1_Q07954_2404_CEYDGSHR (UniProt Q07954)	0.089	0.0894
LPCAT1_Q8NF37_330_LPADTCLLEFAR (UniProt Q8NF37)	0.0476	0.018
LPXN_O60711_199_SGLAYCPNDYHQLFSPR (UniProt O60711)	0.0524	0.166
LIMS1_P48059_193_MGVPICGACR (UniProt P48059)	-0.114	-0.0746
LETM1_O95202_552_DTAPVLEGLKEEEITKEEIDILSDACSK (UniProt O95202)	-0.126	0.018
LETM1_O95202_379_ELQAACR (UniProt O95202)	-0.0504	0.0933
LPCAT2_Q7L5N7_4_CAQAAEVAATVPGAGVGNVGLRPPMVPR (UniProt Q7L5N7)	-0.166	-0.27
LPCAT1_Q8NF37_216_TCLITFKPGAFIPGAPVQPVVLR (UniProt Q8NF37)	-0.0044	0.0543
LRRC8A_Q8IWT6_776_GNRLECLPVELGECPLLK (UniProt Q8IWT6)	-0.0935	0.00841
LRCH3_Q96II8_148_NQLSTLPVHLCNLPLK (UniProt Q96II8)	-0.0579	0.08
LPIN2_Q92539_322_DASMEDTVCTIVKPK (UniProt Q92539)	-0.311	-0.467
LIMS1_P48059_10_ANALASATCER (UniProt P48059)	0.0433	-0.283
LIMS1_P48059_278+281_AWCVNCFACSTCNTK (UniProt P48059)	0.119	0.143
LRCH3_Q96II8_182_HLMELDVSCNEIQTIPSQIGNLEALR (UniProt Q96II8)	-0.193	-0.184
LRRC47_Q8N1G4_390_GPLLYCARPPQDLK (UniProt Q8N1G4)	-0.116	-0.123
LRRC41_Q15345_170_QLTICNMLQGATELVAEPNRR (UniProt Q15345)	-0.00572	-0.064
LRPPRC_P42704_952_LFECDR (UniProt P42704)	0.348	0.342
LRRC59_Q96AG4_277_VTELQQQPLCTSVNTIYDNAVQGLR (UniProt Q96AG4)	-0.0377	0.0988
LSM4_Q9Y4Z0_45_EVICTSR (UniProt Q9Y4Z0)	-0.0921	-0.127

Record cards, as listed above. Order of values: probe-labelled cysteine peptide fold change (10 µM)	probe-labelled cysteine peptide fold change (50 µM)
LRRC59_Q96AG4_277_VTELQQQPLCTSVNTIYDNAVQGLR (UniProt Q96AG4) is listed with -0.0377	0.0988
LPXN_O60711_199_SGLAYCPNDYHQLFSPR (UniProt O60711) is listed with 0.0524	0.166

Additional entries follow:

Target	probe-labelled cysteine peptide fold change (10 µM)	probe-labelled cysteine peptide fold change (50 µM)
LRPPRC_P42704_130_SCGSLLPELK (UniProt P42704)	0.166	0.0887
LDHD_Q86WU2_63_CEPPDAVVWPQNVEQVSR (UniProt Q86WU2)	-0.294	-0.421
LRBA_P50851_2675_CSGIGDNPGSETAAPR (UniProt P50851)	-0.17	0.157
LSS_P48449_471_CPHVTEHIPR (UniProt P48449)	0.0381	-0.0782
LIG1_P18858_719_DSCEGLMVK (UniProt P18858)	-0.119	-0.189
LRCH1_Q9Y2L9_276_QLQVLLLENNPLQSPPAQICTK (UniProt Q9Y2L9)	-0.0442	-0.147
LRCH4_O75427_88_NRFPEVPEAACQLVSLEGLSLYHNCLR (UniProt O75427)	-0.0264	-0.15
LRMP_Q12912_264_LLESLTPLCEDDNQAQEIIK (UniProt Q12912)	-0.0507	-0.00778
LIMS1_P48059_300_FVEFDMKPVCK (UniProt P48059)	-0.0288	-0.0901
LRP1_Q07954_2741_FCSEAQFECQNHR (UniProt Q07954)	0.539	0.205
LRPPRC_P42704_130_SCGSLLPELKLEER (UniProt P42704)	-0.415	-0.186
LPP_Q93052_499+502+505_AYHPHCFTCVMCHR (UniProt Q93052)	0.0633	0.121
LIMS1_P48059_240_GLAYCETHYNQLFGDVCFHCNR (UniProt P48059)	0.0832	-0.0685
LMNB1_P20700_198_CQSLTEDLEFRK (UniProt P20700)	-0.05	-0.0171
LEMD2_Q8NC56_261_KTDEFCQAK (UniProt Q8NC56)	0.0439	0.0684
LRRC14_Q15048_221_NTVALLQLLDAGCLR (UniProt Q15048)	-0.0645	-0.163
LSM14A_Q8ND56_375_SFFDNISCDDNR (UniProt Q8ND56)	-0.0884	-0.473
LRRC14_Q15048_109_LHTSEPGASTQPLCR (UniProt Q15048)	0.131	-0.177
LSP1_P33241_36_AEASSDPGAEEREELLGPTAQWSVEDEEEAVHEQCQHER (UniProt P33241)	0.183	0.233
